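Recombinant human CLK4 kinase with peptide substrate and ATP, run 4.5 hours at room temperature; light from luciferase reports the ATP still present afterwards.
Each compound was titrated in seven steps from about 0.0043 to 67 µM.
Potency is the fitted concentration giving half of the maximal inhibition (AC50, nM); a lower value means a more potent inhibitor.
Calls follow the curve class and a score derived from it, with inconclusive meaning a score of 1–39; these rows show falling curves that are mostly partial or top-dose-only, a few full ones.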

By UniProt entry, the sequences of proteins in these tests, tags left out.
UniProt Q9HAZ1, whole entry, target on record: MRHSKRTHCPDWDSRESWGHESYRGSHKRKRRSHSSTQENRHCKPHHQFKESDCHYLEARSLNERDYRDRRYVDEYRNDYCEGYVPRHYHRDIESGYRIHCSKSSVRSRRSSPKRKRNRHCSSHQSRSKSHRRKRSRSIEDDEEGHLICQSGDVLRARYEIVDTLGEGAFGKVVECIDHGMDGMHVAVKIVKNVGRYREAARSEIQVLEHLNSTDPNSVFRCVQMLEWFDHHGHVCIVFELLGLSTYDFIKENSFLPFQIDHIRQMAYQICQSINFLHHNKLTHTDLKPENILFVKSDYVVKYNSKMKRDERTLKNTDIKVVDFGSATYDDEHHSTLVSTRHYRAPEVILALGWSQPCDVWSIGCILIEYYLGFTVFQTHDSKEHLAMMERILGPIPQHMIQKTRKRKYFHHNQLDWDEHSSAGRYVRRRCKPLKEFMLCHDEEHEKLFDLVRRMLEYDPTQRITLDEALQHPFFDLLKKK

Values are in nM.
Every entry below has the call inconclusive.
Only part of the assay is shown, chiefly results filed as inconclusive.
Potencies fitted to partial, single-point or poorly fitting curves are rough.
Activity scores are not listed here.

| # | Compound | fitted potency (nM) | curve |
|---|---|---|---|
| 1 | `CNc1cc(-c2ccccc2C)ncn1` | 31622 | falling, single point |
| 2 | `c1cncc(-c2nc(N3CCNCC3)c3ccccc3n2)c1` | 28183 | falling, partial curve |
| 3 | `N#Cc1cccc(-c2cc(NCc3ccccc3)ncn2)c1` | 28183 | falling, partial curve |
| 4 | `COc1ccc(CNc2ncnc3ccc(-c4ccccc4OC)cc23)c(OC)c1` | 15848 | falling, partial curve |
| 5 | `Cc1ccccc1-c1cc(NCc2cccnc2)ncn1` | 31622 | falling, single point |

The results are deposited in PubChem (AID1770; NCATS, 2009).